Article PMC5105168
These are yes or no findings as the source states them, for the method shown. Binding seen in cells or lysates may run through a third protein. Some results given as binding are weak or reduced against the parent protein; the word gives no strength.

The chains behind the UniProt entries cited, without tags or fusion partners. Where a name states a change or a piece, a line headed by the entry shows the natural chain unless it says otherwise. A line that says so, or that is headed by a name, gives the form on record, which may keep a tag or linker. Residues count along the entry.
UniProt O43823: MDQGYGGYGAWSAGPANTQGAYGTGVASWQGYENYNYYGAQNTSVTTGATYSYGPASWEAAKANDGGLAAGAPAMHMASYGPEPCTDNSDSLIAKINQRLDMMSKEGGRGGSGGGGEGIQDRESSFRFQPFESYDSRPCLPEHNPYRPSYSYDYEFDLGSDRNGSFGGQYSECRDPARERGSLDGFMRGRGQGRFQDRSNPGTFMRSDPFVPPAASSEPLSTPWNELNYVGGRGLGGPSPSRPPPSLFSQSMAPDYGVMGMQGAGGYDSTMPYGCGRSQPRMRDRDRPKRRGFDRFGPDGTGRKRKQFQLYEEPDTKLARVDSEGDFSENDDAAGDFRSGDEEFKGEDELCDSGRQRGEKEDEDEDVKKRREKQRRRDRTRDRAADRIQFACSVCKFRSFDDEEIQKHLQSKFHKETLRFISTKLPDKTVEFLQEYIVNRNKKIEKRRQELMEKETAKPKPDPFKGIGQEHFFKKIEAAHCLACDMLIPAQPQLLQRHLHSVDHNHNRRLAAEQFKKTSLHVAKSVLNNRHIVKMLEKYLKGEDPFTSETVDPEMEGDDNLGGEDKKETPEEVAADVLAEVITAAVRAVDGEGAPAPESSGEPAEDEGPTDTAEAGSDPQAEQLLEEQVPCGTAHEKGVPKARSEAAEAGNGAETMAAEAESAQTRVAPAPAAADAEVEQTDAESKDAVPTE
FLAG-HA-tagged AKAP95 (1–340): residues 1-340 of O43823
FLAG-HA-tagged AKAP95 (1–210): residues 1-210 of O43823

Tests used:
[1] = biological target: FLAG-HA-tagged AKAP95 (1–340) (human) (UniProt O43823); assay: co-IP; FH-tagged AKAP95 constructs transfected into 293T cells, anti-FLAG M2 agarose, cell lysates in BC300, 0.1% NP40, immunoblot for endogenous hnRNPs
[2] = biological target: FLAG-HA-tagged AKAP95 (1–210) (human) (UniProt O43823); assay: as above
[3] = biological target: MBP fused to AKAP95 wild type (human) (UniProt O43823); assay: pull-down; lysates of 293 cells expressing MBP or MBP fusions of AKAP95, precipitated by amylose beads, immunoblot for endogenous hnRNPs

binding [1]: binds | binding [2]: binds | binding [3]: binds
B1: hnRNP M (endogenous) (protein, UniProt P52272 1-730)
chain: MAAGVEAAAEVAATEIKMEEESGAPGVPSGNGAPGPKGEGERPAQNEKRKEKNIKRGGNRFEPYANPTKRYRAFITNIPFDVKWQSLKDLVKEKVGEVTYVELLMDAEGKSRGCAVVEFKMEESMKKAAEVLNKHSLSGRPLKVKEDPDGEHARRAMQKVMATTGGMGMGPGGPGMITIPPSILNNPNIPNEIIHALQAGRLGSTVFVANLDYKVGWKKLKEVFSMAGVVVRADILEDKDGKSRGIGTVTFEQSIEAVQAISMFNGQLLFDRPMHVKMDERALPKGDFFPPERPQQLPHGLGGIGMGLGPGGQPIDANHLNKGIGMGNIGPAGMGMEGIGFGINKMGGMEGPFGGGMENMGRFGSGMNMGRINEILSNALKRGEIIAKQGGGGGGGSVPGIERMGPGIDRLGGAGMERMGAGLGHGMDRVGSEIERMGLVMDRMGSVERMGSGIERMGPLGLDHMASSIERMGQTMERIGSGVERMGAGMGFGLERMAAPIDRVGQTIERMGSGVERMGPAIERMGLSMERMVPAGMGAGLERMGPVMDRMATGLERMGANNLERMGLERMGANSLERMGLERMGANSLERMGPAMGPALGAGIERMGLAMGGGGGASFDRAIEMERGNFGGSFAGSFGGAGGHAPGVARKACQIFVRNLPFDFTWKMLKDKFNECGHVLYADIKMENGKSKGCGVVKFESPEVAERACRMMNGMKLSGREIDVRIDRNA
